A short description of the data set: general procedure: Fmoc solid-phase peptide synthesis; Fmoc-Gly-2-chlorotrityl polystyrene resin (2-CTC, CBL-Patras); HBTU/HOBt/diisopropylamine. Conditions: whole synthesis, scale of the general procedure 3 mmol.

Consider “H-his-Ala-Glu-Gly-Thr-Phe-Thr-Ser-Asp-Val-Ser-Ser-Tyr-Leu-Glu-Gly-OH”, for which the difficulty met result is recorded as “amino acids 8 to 1 posed severe problems”. In addition, the “crude purity (method not given)” value (HPLC) is listed as “more than 30% purity”.

The record behind these values is patent US9040480 (dated 2015).
